The values below come from patent publication US10703770B2, “Compositions and methods for the dissolution and depolymerization of lignin” (National Technology & Engineering Solutions of Sandia, LLC, priority 2016, dated 2020).

Series [1] concerns switchgrass (SG). The series is described as follows: Compositional analysis of switchgrass after [EOA][OAc] pretreatment. The arrangement: species or system Panicum virgatum.
Series [2] relates to switchgrass (SG). In words: One-pot IL pretreatment and enzymatic saccharification, sugar yield. Particulars: optimized conditions. The arrangement: species or system Panicum virgatum.

Consider `CC(=O)O.NCCO` [[EOA][OAc], ethanolamine acetate], for which, in series [1] (over all pretreatment conditions of Table 2), the “xylan contents of pretreated biomass” value is 24-27%. The “reduction of lignin content” value in series [1] (pretreatment under higher temperature, untreated 20% vs. pretreated 4.7%) is on record as 77%. For the same compound, in series [2], the “glucose liberated from switchgrass” value was 85%.
